Data as given in PubChem BioAssay AID1508597 (Cure First, 2020).
Shown is a random part of the about 2,100 reagents, under one of the conditions tested. 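Calls flag viability under 80% in either arm, not effects specific to rucaparib; the reference for percent is not stated.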 A reagent listed more than once was tested more than once; the source does not tell the runs apart. The record does not give: the 100% reference.

- Aim: 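Knock-downs altering ovarian cancer cell survival with or without PARP inhibitor rucaparib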 (primary screen)
- System: human ovarian carcinoma lines grown from tumours: OCI-P5x (papillary serous) and OCI-C5x (clear cell)
- Knock-down reagent: siRNA pool against human genes, 1.25 pmol siRNA per well
- Duration: 72 h or 96 h, depending on the cell culture
- Treatment: rucaparib 20 µM (about IC30) or vehicle, present until read-out
- Rucaparib or vehicle: Vehicle
- Cell line: OCI-P5x (serous)
- Measured: 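Luminescent ATP-based viability assay read 72 or 96 h after transfection, depending on culture, given as normalised percent viability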
- Scale: viability, normalised: higher = more viable cells remaining
- Rule for the call: 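a well counts as a hit if its normalised viability is under 80 percent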
- Calls: active = viability under 80%; inactive = viability 80% or more

With PHF20, technical replicate 1, the values are viability, normalised (%) = 47.1; active.
With PHF20, technical replicate 2 the deposit lists viability, normalised (%) = 49.6; active.
With PHF20, technical replicate 3 the deposit lists viability, normalised (%) = 69; active.
MTA1, technical replicate 1 scored viability, normalised (%) = 48.2; active.
With MTA1, technical replicate 2 the deposit lists viability, normalised (%) = 54.5; active.
MTA1, technical replicate 3 scored viability, normalised (%) = 56.7; active.
With PDXK, technical replicate 1, the values are viability, normalised (%) = 104; inactive.
With PDXK, technical replicate 2, the entry reads viability, normalised (%) = 86.2; inactive.
With PDXK, technical replicate 3, the values are viability, normalised (%) = 92.5; inactive.
With COQ8A, technical replicate 1 the deposit lists viability, normalised (%) = 88.6; inactive.
COQ8A, technical replicate 2 scored viability, normalised (%) = 104; inactive.
For COQ8A, technical replicate 3, the values are viability, normalised (%) = 71.8; active.
For CDK11B, technical replicate 1, the entry reads viability, normalised (%) = 84.1; inactive.
CDK11B, technical replicate 2 scored viability, normalised (%) = 94.1; inactive.
For CDK11B, technical replicate 3, the entry reads viability, normalised (%) = 92.9; inactive.
For KDM4B, technical replicate 1, the entry reads viability, normalised (%) = 46.7; active.
For KDM4B, technical replicate 2, the entry reads viability, normalised (%) = 54.6; active.
KDM4B, technical replicate 3 showed viability, normalised (%) = 88.3; inactive.
ALPK1, technical replicate 1 gave viability, normalised (%) = 66; active.
With ALPK1, technical replicate 1, the values are viability, normalised (%) = 77.3; active.
For ALPK1, technical replicate 2, the values are viability, normalised (%) = 64.2; active.
ALPK1, technical replicate 2 scored viability, normalised (%) = 72.4; active.
ALPK1, technical replicate 3 scored viability, normalised (%) = 69.7; active.
For ALPK1, technical replicate 3 the deposit lists viability, normalised (%) = 84.8; inactive.
For UCKL1, technical replicate 1 the deposit lists viability, normalised (%) = 56.8; active.
UCKL1, technical replicate 2 showed viability, normalised (%) = 42.3; active.
UCKL1, technical replicate 3 showed viability, normalised (%) = 50.5; active.
MYOD1, technical replicate 1 showed viability, normalised (%) = 40.4; active.
MYOD1, technical replicate 2 scored viability, normalised (%) = 44.5; active.
MYOD1, technical replicate 3 showed viability, normalised (%) = 50.7; active.
With TRIB3, technical replicate 1, the values are viability, normalised (%) = 89.3; inactive.
With TRIB3, technical replicate 2 the deposit lists viability, normalised (%) = 86.3; inactive.
TRIB3, technical replicate 3 scored viability, normalised (%) = 44.3; active.
